The values that follow come from article PMC9277853.

Amino acid sequences for entries named in this document (tags omitted).
UniProt P67809: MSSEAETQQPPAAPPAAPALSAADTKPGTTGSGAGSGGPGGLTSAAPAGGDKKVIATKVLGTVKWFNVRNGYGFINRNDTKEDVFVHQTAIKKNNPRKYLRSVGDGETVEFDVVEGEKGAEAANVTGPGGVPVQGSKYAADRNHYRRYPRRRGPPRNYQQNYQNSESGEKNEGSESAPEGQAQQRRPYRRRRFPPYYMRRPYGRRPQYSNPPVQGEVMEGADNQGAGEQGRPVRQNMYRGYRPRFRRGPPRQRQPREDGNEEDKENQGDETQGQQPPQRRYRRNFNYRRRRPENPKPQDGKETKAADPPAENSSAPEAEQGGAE

The target of test [1] is T1, Flag-HA-RNF8 (UniProt O76064).
T1 sequence: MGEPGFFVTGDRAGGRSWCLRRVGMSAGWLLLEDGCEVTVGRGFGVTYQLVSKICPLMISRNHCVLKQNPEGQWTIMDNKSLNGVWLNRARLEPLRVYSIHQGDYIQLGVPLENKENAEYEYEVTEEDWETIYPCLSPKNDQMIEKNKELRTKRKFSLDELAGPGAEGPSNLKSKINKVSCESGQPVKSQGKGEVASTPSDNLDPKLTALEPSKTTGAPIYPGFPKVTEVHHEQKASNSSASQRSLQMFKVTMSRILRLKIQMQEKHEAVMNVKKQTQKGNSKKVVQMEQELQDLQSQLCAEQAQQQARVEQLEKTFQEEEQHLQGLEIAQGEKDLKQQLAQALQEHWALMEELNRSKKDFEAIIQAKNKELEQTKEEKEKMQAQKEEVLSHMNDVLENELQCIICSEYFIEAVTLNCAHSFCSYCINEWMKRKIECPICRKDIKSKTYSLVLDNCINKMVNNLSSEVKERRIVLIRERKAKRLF
Kind of test: co-IP; HEK-293T transfected with pcDNA3.1 (control) or pcDNA3.1-FH-RNF8, 48 h; lysate on HA-Sepharose beads; blots with anti-RNF8, anti-HA, anti-YBX1.

Test [2] deals with T2, RNF8 (endogenous) (human (endogenous in MDA-MB-231)) (UniProt O76064).
T2 sequence: T1 sequence
Kind of test: co-IP; endogenous; MDA-MB-231 lysate (methods: MCF7) with anti-RNF8 antibody or normal mouse IgG (control); blots with anti-RNF8 and anti-YBX1.

Test [3] has as its target FH-YBX1 (UniProt P67809). As to the kind of experiment: co-IP; HEK-293T transfected with TG006 or TG006-RNF8 together with pcDNA3.1-FH-YBX1, 48 h; anti-Flag-M2 agarose beads; blots with anti-YBX1 and anti-RNF8.

Results are given in words; binding and its absence hold for the method and conditions named. In cells and extracts the contact can be indirect. Some entries that bind do so weakly or less than the wild type. For part of these data: Sequences can lack the tags named with a protein.

As to “YBX1 (endogenous) (from UniProt P67809 1-324)”, the binding entry in test [1] is given as “binds”.

For “YBX1 (endogenous, MDA-MB-231) (from UniProt P67809 1-324)”, the binding result in test [2] is reported as “binds”.

B1: RNF8 expressed from TG006-RNF8 (enzyme, UniProt O76064 1-485)
chain: T1 sequence
As to B1, in test [3], the binding entry is “binds”.
